Measured values reported in patent EP3428178B1, “PEPTIDE FOR PREVENTING OR TREATING INFLAMMATORY DISEASES AND USE THEREOF” (dated 2026).

Key:
[1] = tested on: joint region of collagen-induced arthritis mouse model; assay: Histological analysis (H&E staining) of hind leg joint tissue of CIA mouse; settings: FIG. 6
Procedure: First, a bovine type II collagen (Chondrex Corporation, USA) and a Freund's complete adjuvant (Chondrex Corporation, USA) were mixed at a ratio of 1:1 and emulsified, and then 50 µl of the emulsified collagen solution was injected intradermally into the tail of a 6-week-old DBA/1J mouse to induce primary immunization. At two weeks after the primary immunization, the bovine type II collagen and the Freund's complete adjuvant were mixed at a ratio of 1:1 and emulsified, and then 50 µl of the emulsified collagen solution was injected intradermally into the tail of the mouse again to induce secondary immunization (boosting). After the secondary immunization, the peptide of the present invention (the PSP dimer (1 µmole) or the PSP trimer (1 µmole)) was administered intraperitoneally three times a week from the next day, and as a comparative experimental group, a PSP monomer-treated group and as a control (Vehicle control), a PBS-treated group were used, respectively. The preparation process of the collagen-induced arthritis mouse model and the administration time of the peptide were schematically illustrated in FIG. 1.
In order to confirm a healing effect of the cartilage damage of the joint region according to the peptide treatment of the present invention, the deepening degree of arthritis in Example 2-2 was evaluated and then, a histological analysis was performed. […]

[2] = tested on: collagen-induced arthritis (CIA) mouse model; assay: Arthritis progression index in collagen-induced arthritis (CIA) mouse model
Procedure: A collagen-induced arthritis (CIA) mouse model was prepared as follows, as an autoimmune disease-based arthritis model with characteristics similar to human rheumatoid arthritis.
(§1) First, a bovine type II collagen (Chondrex Corporation, USA) and a Freund's complete adjuvant (Chondrex Corporation, USA) were mixed at a ratio of 1:1 and emulsified, and then 50 µl of the emulsified collagen solution was injected intradermally into the tail of a 6-week-old DBA/1J mouse to induce primary immunization. […]
In order to investigate the development of arthritis progression according to the peptide treatment of the present invention, the deepening degree of arthritis with time was measured by evaluating an arthritis progression index. Two observers who were unaware of the specific experimental conditions evaluated progression of arthritis three times a week. In this case, the arthritis progression index was evaluated by 0 to 4 scores per leg according to an arthritis progression evaluation standard by Rossoliniec and the like in Table 2 below to be represented by a total of 0 to 16 scores (a sum of four legs), and thereafter, two observers calculated an average value of the evaluated results to digitize the severity of arthritis. […]

IL-18 = IL-18 expression in joint tissue by immunohistochemistry (IHC); settings: FIG. 7
Procedure: as §1, with “immunization. At two weeks after the primary immunization, the bovine type II collagen and the Freund's complete adjuvant were mixed at a ratio of 1:1 and emulsified, and then 50 µl of the emulsified collagen solution was injected intradermally into the tail of the mouse again to induce secondary immunization (boosting).” for “immunization.”
Rheumatoid arthritis is one of chronic inflammatory diseases and it has been reported to increase the concentration of inflammatory cytokine such as interleukin-18 (IL-18) even in the joint tissues as well as the blood of a patient with rheumatoid arthritis. […] The expression of IL-18 was measured by using immunohistochemistry (IHC), and to this end, a paraffin ingredient was removed from the paraffin tissue fragment and then rehydrated to create an environment in which the antibodies may be stained. […]

O=C(N[C@@H](CO)C(=O)N1CCC[C@H]1C(=O)N1CCC[C@H]1C(=O)N[C@@H](CO)C(=O)N1CCC[C@H]1C(=O)N1CCC[C@H]1C(=O)N[C@@H](CO)C(=O)N1CCC[C@H]1C(=O)O)[C@@H]1CCCN1
immune cell infiltration, pannus formation, cartilage destruction, and bone erosion of the joint region [1]: greatly reduced
arthritis progression index compared with methotrexate ([2]; methotrexate 1 mg/kg, Tables 6 and 7): approximate arthritis progression index to the group treated with methotrexate
swelling and redness around the ankle joint ([2]; visual check, compared with the control, FIG. 5): remarkably mitigated
expression of IL-18 (IL-18): largely decreased to the normal mouse level

The structures given here were assigned with low confidence; some may be wrong.
